This passage reports binding results from paper PMC4316792, “The dehydrogenase region of the NADPH oxidase component Nox2 acts as a protein disulfide isomerase (PDI) resembling PDIA3 with a role in the binding of the activator protein p67^phox” (Frontiers in Chemistry, 2015).

One test deals with T1, p67^phox(1–526) (UniProt P19878 1-526).
T1 construct: construct as in Mizrahi et al., 2010; also called full-length p67^phox; 6His-p67^phox; source: E. coli, purified (Nickel Sepharose); not shown: 6His, N-terminal, kept
T1 sequence (looked up): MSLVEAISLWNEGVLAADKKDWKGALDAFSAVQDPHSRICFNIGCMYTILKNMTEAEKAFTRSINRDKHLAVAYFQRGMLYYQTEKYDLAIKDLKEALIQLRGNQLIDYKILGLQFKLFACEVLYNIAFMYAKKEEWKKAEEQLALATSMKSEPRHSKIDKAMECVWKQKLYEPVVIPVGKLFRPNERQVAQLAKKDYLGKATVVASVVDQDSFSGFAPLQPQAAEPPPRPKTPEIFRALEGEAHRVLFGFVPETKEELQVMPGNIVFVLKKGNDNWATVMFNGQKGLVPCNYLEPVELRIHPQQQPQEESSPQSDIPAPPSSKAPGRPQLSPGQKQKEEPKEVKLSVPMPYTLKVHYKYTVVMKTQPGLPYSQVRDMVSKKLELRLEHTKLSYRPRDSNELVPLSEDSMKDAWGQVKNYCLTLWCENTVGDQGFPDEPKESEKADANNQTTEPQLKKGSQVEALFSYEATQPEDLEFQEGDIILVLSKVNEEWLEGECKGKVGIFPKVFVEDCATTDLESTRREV
Put plainly: ELISA; protein—protein binding assay: p67^phox (0.5 μM in PBS) attached to 96-well plates 16–18 h at 4°C; NusA-Nox2 or NusA 0.5 μM in PBS with 0.1% Tween 20 and 1% casein, 1 h at room temperature; detected by anti-NusA antibody and peroxidase-conjugated anti-mouse IgG, mAbs at 650 nm per min; both …. A general note: In an ELISA, binding on a coated surface is turned into a signal by an enzyme label.

Test [1] concerns the target T2, p67^phox(1–212) (UniProt P19878 1-212).
T2 construct: contains four cysteines (40, 45, 121, 165); source: E. coli, purified (Nickel Sepharose); not shown: 6His, N-terminal, kept
T2 sequence (looked up): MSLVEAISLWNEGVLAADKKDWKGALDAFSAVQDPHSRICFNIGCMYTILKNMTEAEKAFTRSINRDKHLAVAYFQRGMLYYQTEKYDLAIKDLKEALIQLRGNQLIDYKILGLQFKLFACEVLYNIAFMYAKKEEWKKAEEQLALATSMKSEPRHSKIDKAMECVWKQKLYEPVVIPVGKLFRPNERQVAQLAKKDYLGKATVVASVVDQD
The description is as above.

Test [2] has as its target T2, p67^phox(1–212). Briefly: SEC; gel filtration; native molecular mass of p67^phox(1–212) wild type and mutant; both purified. On the technique in general: Size exclusion chromatography separates by hydrodynamic size, large species first.
The target of test [3] is p67^phox(1–212) in which cysteines 40, 45, 121, and 165 were mutated to serine (UniProt P19878). Described as above.

Results are given in words; binding and its absence hold for the method and conditions named.

Turning to NusA (from UniProt P0AFF6 1-495), the binding result with p67^phox(1–526) and in the test with p67^phox(1–212) [1] was “no binding (tested: 0.5 μM)” throughout.

As to “p67^phox(1–212) (from UniProt P19878 1-212) (domain or fragment)”, the binding entry with p67^phox(1–212) [2] is on record as “no binding”.

As to “p67^phox(1–212) in which cysteines 40, 45, 121, and 165 were mutated to serine (from UniProt P19878 1-212) (domain or fragment)”, in test [3], the binding result was “no binding”.
